Test results published in the supplement of paper PMC12067093, “Discovery and optimisation of a covalent ligand for TRIM25 and its application to targeted protein ubiquitination” (Chemical Science, 2025).
This is one part of the list.

Amino acid sequences for entries named in this document (tags omitted). A change or cut given only in a name is not applied to a line headed by its entry.
UniProt Q9H6R7: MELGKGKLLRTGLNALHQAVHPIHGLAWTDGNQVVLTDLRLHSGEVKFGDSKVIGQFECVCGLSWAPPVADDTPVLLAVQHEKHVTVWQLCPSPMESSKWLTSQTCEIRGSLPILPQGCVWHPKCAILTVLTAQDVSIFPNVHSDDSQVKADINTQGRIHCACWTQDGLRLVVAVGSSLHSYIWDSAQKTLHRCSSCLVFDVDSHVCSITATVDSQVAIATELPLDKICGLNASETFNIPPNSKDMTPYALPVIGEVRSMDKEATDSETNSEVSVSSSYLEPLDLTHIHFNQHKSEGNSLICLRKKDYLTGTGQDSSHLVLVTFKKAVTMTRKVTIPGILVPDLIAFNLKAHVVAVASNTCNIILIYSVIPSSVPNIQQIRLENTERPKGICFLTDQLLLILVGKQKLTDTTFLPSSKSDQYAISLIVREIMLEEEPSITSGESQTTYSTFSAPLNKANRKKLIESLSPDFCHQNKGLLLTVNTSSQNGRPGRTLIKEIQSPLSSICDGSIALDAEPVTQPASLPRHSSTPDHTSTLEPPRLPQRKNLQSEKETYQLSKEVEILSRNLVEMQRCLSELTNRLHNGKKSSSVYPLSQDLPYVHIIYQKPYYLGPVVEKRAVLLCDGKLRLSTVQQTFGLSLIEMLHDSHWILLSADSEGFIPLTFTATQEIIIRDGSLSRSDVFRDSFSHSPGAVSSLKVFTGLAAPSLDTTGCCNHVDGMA
UniProt P98170, whole entry, looked up: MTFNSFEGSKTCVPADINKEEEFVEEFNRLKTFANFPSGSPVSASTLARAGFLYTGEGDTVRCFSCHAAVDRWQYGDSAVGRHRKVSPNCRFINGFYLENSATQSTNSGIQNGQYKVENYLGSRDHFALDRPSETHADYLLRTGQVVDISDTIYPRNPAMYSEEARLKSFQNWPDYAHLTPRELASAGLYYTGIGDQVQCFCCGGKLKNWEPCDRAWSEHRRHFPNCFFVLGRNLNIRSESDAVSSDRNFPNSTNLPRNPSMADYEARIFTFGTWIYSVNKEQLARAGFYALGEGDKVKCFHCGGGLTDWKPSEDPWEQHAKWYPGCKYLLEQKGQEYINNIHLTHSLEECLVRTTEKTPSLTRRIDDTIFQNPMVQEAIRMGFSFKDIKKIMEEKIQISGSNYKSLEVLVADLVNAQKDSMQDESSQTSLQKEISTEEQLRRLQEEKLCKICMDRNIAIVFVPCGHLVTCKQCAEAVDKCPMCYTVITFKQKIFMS
UniProt P19544: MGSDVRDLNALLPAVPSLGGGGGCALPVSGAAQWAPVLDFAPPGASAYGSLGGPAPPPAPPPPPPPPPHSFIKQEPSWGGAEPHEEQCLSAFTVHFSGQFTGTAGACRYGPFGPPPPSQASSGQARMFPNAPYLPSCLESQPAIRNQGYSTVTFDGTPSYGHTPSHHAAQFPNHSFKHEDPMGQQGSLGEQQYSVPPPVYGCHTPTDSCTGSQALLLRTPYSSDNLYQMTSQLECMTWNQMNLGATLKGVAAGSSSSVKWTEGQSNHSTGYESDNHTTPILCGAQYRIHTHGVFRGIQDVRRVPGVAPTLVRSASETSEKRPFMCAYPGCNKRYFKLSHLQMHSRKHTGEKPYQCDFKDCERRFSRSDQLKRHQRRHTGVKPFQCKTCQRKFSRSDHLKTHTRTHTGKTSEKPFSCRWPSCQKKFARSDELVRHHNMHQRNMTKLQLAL
UniProt Q9C0J8: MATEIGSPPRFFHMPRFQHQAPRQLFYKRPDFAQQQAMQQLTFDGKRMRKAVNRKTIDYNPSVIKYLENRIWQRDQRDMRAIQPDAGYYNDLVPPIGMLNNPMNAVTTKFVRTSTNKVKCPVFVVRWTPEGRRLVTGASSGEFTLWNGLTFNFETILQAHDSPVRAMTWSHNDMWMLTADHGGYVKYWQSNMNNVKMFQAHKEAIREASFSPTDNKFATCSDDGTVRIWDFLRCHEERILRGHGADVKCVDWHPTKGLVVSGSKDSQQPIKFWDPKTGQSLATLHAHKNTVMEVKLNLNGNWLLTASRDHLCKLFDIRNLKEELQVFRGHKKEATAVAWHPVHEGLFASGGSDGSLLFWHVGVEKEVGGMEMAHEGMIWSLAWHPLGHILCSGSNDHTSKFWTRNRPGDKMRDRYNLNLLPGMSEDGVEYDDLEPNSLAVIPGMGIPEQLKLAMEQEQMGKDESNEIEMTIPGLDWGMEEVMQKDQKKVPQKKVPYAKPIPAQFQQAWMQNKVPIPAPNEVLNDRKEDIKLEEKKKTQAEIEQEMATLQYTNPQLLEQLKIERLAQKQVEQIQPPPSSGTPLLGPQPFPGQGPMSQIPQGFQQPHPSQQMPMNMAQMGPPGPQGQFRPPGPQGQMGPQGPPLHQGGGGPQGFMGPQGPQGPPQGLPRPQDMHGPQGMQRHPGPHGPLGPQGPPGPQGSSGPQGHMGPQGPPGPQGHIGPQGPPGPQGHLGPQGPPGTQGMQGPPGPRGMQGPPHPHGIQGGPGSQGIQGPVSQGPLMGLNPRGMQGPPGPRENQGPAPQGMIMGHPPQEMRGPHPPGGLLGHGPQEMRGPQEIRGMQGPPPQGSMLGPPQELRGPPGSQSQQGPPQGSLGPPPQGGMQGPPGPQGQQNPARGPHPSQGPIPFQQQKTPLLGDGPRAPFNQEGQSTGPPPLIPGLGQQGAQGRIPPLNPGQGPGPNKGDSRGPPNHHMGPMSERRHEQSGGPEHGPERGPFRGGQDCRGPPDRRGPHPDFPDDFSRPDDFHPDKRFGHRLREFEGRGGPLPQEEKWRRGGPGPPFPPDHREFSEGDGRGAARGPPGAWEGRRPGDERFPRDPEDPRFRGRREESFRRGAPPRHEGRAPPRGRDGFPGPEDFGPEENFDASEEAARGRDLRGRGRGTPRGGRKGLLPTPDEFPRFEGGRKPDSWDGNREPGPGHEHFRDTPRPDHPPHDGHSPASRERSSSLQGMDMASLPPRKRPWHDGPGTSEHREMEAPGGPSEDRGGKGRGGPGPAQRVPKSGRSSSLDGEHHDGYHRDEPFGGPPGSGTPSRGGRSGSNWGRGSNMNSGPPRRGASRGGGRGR
UniProt Q9HAD4: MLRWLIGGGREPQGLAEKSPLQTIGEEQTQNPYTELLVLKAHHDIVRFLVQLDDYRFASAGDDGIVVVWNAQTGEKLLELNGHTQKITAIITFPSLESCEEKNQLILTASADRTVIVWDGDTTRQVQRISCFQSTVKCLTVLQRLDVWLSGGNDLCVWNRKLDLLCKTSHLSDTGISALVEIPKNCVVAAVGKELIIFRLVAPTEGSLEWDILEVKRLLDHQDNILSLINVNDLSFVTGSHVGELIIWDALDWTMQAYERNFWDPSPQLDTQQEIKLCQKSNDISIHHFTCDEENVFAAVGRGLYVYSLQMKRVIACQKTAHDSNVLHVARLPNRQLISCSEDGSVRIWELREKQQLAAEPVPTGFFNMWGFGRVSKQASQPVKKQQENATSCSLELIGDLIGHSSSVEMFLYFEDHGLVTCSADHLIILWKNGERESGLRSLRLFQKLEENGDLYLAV
UniProt Q9BQA1, whole entry, looked up: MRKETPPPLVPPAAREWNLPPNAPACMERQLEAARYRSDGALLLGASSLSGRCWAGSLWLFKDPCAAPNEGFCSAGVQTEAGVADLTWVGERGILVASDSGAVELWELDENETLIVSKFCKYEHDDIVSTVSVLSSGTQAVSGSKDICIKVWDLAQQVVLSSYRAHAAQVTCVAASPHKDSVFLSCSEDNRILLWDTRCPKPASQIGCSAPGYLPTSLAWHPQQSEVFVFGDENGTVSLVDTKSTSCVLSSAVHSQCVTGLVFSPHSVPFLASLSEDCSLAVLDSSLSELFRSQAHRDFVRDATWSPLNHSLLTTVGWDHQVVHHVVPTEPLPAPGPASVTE
UniProt Q9Y4E6, whole entry, looked up: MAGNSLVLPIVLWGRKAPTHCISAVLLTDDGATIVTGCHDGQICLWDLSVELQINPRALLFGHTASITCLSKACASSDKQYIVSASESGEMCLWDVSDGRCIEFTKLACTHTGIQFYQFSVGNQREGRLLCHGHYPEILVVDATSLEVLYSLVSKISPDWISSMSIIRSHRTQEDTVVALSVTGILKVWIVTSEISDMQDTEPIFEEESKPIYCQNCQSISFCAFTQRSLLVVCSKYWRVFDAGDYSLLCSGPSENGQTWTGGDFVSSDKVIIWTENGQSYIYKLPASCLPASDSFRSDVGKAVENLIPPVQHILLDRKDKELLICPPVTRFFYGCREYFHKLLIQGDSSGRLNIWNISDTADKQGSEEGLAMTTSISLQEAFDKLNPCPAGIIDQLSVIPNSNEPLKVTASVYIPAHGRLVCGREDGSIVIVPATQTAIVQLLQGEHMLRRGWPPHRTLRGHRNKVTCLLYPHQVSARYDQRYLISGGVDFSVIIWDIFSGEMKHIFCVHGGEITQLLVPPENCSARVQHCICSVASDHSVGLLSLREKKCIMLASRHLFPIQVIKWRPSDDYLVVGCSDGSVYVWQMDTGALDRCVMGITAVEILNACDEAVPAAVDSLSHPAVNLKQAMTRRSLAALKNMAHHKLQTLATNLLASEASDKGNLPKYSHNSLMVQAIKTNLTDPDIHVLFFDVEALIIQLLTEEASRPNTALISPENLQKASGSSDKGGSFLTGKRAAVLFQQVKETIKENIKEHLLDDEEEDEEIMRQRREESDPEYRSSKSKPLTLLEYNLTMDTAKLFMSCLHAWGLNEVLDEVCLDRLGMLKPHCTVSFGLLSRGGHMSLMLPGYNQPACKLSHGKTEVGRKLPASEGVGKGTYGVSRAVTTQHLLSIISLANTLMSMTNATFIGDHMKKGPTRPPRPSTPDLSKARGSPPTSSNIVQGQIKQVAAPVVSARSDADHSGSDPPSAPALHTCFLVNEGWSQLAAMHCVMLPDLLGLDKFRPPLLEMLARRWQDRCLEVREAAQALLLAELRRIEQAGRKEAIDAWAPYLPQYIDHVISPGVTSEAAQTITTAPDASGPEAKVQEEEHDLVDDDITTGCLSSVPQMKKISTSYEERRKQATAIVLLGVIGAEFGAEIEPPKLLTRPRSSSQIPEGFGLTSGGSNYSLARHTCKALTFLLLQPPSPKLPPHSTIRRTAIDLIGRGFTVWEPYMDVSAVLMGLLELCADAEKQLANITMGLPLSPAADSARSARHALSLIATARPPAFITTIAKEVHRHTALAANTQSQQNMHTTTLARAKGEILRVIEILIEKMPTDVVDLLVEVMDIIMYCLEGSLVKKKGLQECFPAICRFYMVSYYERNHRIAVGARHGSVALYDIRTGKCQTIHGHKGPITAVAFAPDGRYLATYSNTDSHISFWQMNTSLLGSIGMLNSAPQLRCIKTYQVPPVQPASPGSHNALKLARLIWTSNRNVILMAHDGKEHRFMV
UniProt Q6PJI9: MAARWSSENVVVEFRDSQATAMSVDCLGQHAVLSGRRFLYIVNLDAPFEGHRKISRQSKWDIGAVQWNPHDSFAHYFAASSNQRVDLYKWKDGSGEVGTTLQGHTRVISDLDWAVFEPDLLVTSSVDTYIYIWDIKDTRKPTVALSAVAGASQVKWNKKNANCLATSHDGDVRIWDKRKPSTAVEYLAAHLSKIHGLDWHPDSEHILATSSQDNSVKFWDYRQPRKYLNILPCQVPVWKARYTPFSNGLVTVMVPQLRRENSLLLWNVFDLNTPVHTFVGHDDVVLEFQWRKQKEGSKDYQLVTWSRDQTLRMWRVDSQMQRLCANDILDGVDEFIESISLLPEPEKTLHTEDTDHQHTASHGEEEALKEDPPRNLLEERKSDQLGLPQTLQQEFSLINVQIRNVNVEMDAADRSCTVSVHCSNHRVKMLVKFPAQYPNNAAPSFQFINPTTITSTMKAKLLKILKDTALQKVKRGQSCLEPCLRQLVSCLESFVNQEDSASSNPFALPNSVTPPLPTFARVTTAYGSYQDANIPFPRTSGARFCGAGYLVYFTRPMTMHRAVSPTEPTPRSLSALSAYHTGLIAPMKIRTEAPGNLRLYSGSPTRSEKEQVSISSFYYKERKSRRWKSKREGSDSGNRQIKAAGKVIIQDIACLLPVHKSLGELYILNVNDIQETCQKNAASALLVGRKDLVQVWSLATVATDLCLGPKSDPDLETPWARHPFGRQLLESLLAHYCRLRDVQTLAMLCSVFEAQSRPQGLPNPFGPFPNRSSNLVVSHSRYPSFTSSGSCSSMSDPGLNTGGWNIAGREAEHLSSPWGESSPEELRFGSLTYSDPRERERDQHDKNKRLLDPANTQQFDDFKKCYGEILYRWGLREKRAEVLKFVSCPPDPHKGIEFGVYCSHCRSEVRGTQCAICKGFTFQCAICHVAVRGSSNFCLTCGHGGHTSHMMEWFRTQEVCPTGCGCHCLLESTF

Compound: Cc1cc(ccc1-c1ccccc1)C(=O)N1CCCN(CC1)C(=O)CCl [compound 10]
Test: probe-labelled cysteine peptide fold change vs DMSO (competition) (log2 fold change); higher = less target engagement (more negative = stronger competition)
Conditions: THP-1, incubation time: 4 h
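Further: competitive profiling in live THP-1 cells: cysteine peptides tagged with an iodoacetamide desthiobiotin (IA-DTB) probe, intensity after compound treatment relative to DMSO-treated cells.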

Target	probe-labelled cysteine peptide fold change (10 µM)	probe-labelled cysteine peptide fold change (50 µM)
WDR55_Q9H6Y2_268_AESIDCMVPVTESLLCTGSTDGVIR (UniProt Q9H6Y2)	0.135	0.421
WDR3_Q9UNX4_70_QEVTCLCPSPDGLHLAVGYEDGSIR (UniProt Q9UNX4)	-0.0576	0.153
WDCP_Q9H6R7_472_LIESLSPDFCHQNK (UniProt Q9H6R7)	-0.22	-0.82
XPNPEP1_Q9NQW7_582_ECDWLNNYHLTCR (UniProt Q9NQW7)	0.173	0.128
XPNPEP1_Q9NQW7_308_CCMPYTPICIAK (UniProt Q9NQW7)	0.0138	-0.283
XIAP_P98170_471_NIAIVFVPCGHLVTCK (UniProt P98170)	0.0582	-0.142
WIPI2_Q9Y4P8_430_LAYTDDLGAVGGACLEDEASALRLDEDSEHPPMILR (UniProt Q9Y4P8)	-0.352	-0.0492
WT1_P19544_385_HTGVKPFQCK (UniProt P19544)	0.139	-0.211
WDR33_Q9C0J8_996_GGQDCR (UniProt Q9C0J8)	-0.0589	-0.444
WDR66_Q8TBY9_567_SNYPPDCTLK (UniProt Q8TBY9)	0.245	0.47
WDR41_Q9HAD4_131_ISCFQSTVK (UniProt Q9HAD4)	-0.0174	-0.338
XPNPEP1_Q9NQW7_48_NSEYVTEPIQAYIIPSGDAHQSEYIAPCDCRR (UniProt Q9NQW7)	-0.104	0.333
WDR77_Q9BQA1_172_AHAAQVTCVAASPHK (UniProt Q9BQA1)	0.0618	0.254
WDR7_Q9Y4E6_469_VTCLLYPHQVSAR (UniProt Q9Y4E6)	0.00834	-0.0295
WASHC5_Q12768_369_DCNVAIR (UniProt Q12768)	-0.0902	-0.01
WDR12_Q9GZL7_184+185_ALHCCR (UniProt Q9GZL7)	-0.224	-0.338
WDR77_Q9BQA1_186_DSVFLSCSEDNR (UniProt Q9BQA1)	0.136	0.227
WDR6_Q9NNW5_1096_LGHGEPTFMNSTVFHVPDVADMDCWPVSPEFGHR (UniProt Q9NNW5)	0.172	0.345
WDR70_Q9NW82_430_PLFSASGLPTMFPMTDCCFSPDDK (UniProt Q9NW82)	-0.00787	-0.373
WDR41_Q9HAD4_291_SNDISIHHFTCDEENVFAAVGR (UniProt Q9HAD4)	0.135	0.418
WDR59_Q6PJI9_233_YLNILPCQVPVWK (UniProt Q6PJI9)	0.199	0.28
WDR7_Q9Y4E6_69_ALLFGHTASITCLSK (UniProt Q9Y4E6)	-0.00135	0.0467

Reprinted from above (two entries):
Target	probe-labelled cysteine peptide fold change (10 µM)	probe-labelled cysteine peptide fold change (50 µM)
WDR41_Q9HAD4_291_SNDISIHHFTCDEENVFAAVGR (UniProt Q9HAD4)	0.135	0.418
WDR59_Q6PJI9_233_YLNILPCQVPVWK (UniProt Q6PJI9)	0.199	0.28
